At least one compound was matched to its structure with a doubt left.
Test system: KP mice carrying LUADs
Assay: Combination treatment trial in KP mice, tumor burden by bioluminescence imaging
Assay type: in vivo, mouse
Conditions: 6 weeks from week 2, empagliflozin 10 mg/kg/d, tazemetostat 125 mg/kg/bid, oral gavage
Experimental: Lung tumors were induced by intranasal administration of Adeno-Cre (purchased from University of Iowa Viral Vector Core) as previously described (Scafoglio et al., 2018), or by transthoracic injection of Adeno-Cre in KPluc mice. All treatment trials were performed 2 weeks after tumor induction, and the results of biological duplicates were pooled for statistical analysis. In all trials, mice were assigned to therapeutic groups so that there were no significant differences in baseline tumor burden, age, sex, or weight among the different groups.
In the combination treatment trial (FIG. 3F-G), mice received the first BLI measurement two weeks post-AdenoCre administration for measurement of the baseline tumor burden. Four therapeutic groups were established as follows: (i) Placebo (n=11), receiving oral gavage of vehicle (DMSO 5%, PEG 30%, Tween80 10%); (ii) SGLT2 inhibitor Empaglifozin (10 mg/Kg/d, n=13); (iii) EZH2 inhibitor Tazemetostat (125 mg/Kg/bid, n=10); (iiii) Empaglifozin and Tazemetosat (n=19). Each group received bi-daily administration by oral gavage.

Structure (SMILES): CCN(c1cc(-c2ccc(CN3CCOCC3)cc2)cc(C(=O)NCc2c(C)cc(C)[nH]c2=O)c1C)C1CCOCC1 [tazemetostat]
- tumor burden by bioluminescence imaging, compared with placebo: significantly reduced
